Some of these results come from one statement about several compounds together.
Target: T1, human S1P3 receptor (Homo sapiens, UniProt Q99500)
T1 construct: expressed in transfected cells; membranes
Assay: S1P3 GTPγS binding assay
Assay type: biochemical
Settings: S1P3 membranes from rat basophilic leukaemia cells (RBL-2H3), SPA beads, [35S]-GTPγS

By UniProt entry, the sequences of proteins in these tests, tags left out. Where a name states a change or a piece, a line headed by the entry shows the natural chain unless it says otherwise.
UniProt Q99500: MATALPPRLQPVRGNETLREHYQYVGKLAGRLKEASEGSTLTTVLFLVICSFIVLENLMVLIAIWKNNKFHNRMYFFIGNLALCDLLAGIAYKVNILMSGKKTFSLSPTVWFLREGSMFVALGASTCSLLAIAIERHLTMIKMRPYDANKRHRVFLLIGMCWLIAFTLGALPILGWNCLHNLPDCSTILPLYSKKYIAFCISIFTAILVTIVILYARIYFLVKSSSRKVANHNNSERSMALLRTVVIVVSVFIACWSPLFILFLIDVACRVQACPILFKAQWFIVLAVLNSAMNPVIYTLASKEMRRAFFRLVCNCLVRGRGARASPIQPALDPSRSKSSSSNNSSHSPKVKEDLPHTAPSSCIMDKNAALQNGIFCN

Structure (SMILES)	pEC50
CC(C)Oc1ccc(-c2nc(-c3cccc4c3cnn4CCC(=O)O)no2)cc1C#N [Example 27, 3-[4-(5-{3-cyano-4-[(1-methylethyl)oxy]phenyl}-1,2,4-oxadiazol-3-yl)-1H-indazol-1-yl]propanoic acid]	< 6.5
CC(C)Oc1ccc(-c2nc(-c3cccc4nn(CCC(=O)O)cc34)no2)cc1Cl [Example 28, 3-[4-(5-{3-chloro-4-[(1-methylethyl)oxy]phenyl}-1,2,4-oxadiazol-3-yl)-2H-indazol-2-yl]propanoic acid]	< 6.5
CC(C)Oc1ccc(-c2nc(-c3cccc4nn(CCC(=O)O)cc34)no2)cc1C#N [Example 29, 3-[4-(5-{3-cyano-4-[(1-methylethyl)oxy]phenyl}-1,2,4-oxadiazol-3-yl)-2H-indazol-2-yl]propanoic acid]	< 6.5
CC(C)Oc1ccc(-c2nc(-c3cccc4c3cnn4CCCC(=O)O)no2)cc1C#N [Example 30, 4-[4-(5-{3-cyano-4-[(1-methylethyl)oxy]phenyl}-1,2,4-oxadiazol-3-yl)-1H-indazol-1-yl]butanoic acid]	< 6.5
CCc1cc(-c2nc(-c3cccc4c3cnn4CCCC(=O)O)no2)ccc1N1CCCCC1 [Example 31, 4-(4-{5-[3-ethyl-4-(1-piperidinyl)phenyl]-1,2,4-oxadiazol-3-yl}-1H-indazol-1-yl)butanoic acid]	< 6.5
O=C(O)CCCn1ncc2c(-c3noc(-c4ccc(-c5ccccc5)c(C(F)(F)F)c4)n3)cccc21 [Example 32, 4-(4-{5-[2-(trifluoromethyl)-4-biphenylyl]-1,2,4-oxadiazol-3-yl}-1H-indazol-1-yl)butanoic acid]	< 6.5
O=C(O)CCCn1ncc2c(-c3noc(-c4ccc(OC(F)(F)F)c(Cl)c4)n3)cccc21 [Example 33, 4-[4-(5-{3-chloro-4-[(trifluoromethyl)oxy]phenyl}-1,2,4-oxadiazol-3-yl)-1H-indazol-1-yl]butanoic acid]	< 6.5
CC(C)Oc1ccc(-c2nc(-c3cccc4c3cnn4CCC(=O)O)no2)cc1C(F)(F)F [Example 34, 3-(4-{5-[4-[(1-methylethyl)oxy]-3-(trifluoromethyl)phenyl]-1,2,4-oxadiazol-3-yl}-1H-indazol-1-yl)propanoic acid]	< 6.5
CC(C)Oc1ccc(-c2nc(-c3cccc4c3cnn4CCCC(=O)O)no2)cc1C(F)(F)F [Example 35, 4-(4-{5-[4-[(1-methylethyl)oxy]-3-(trifluoromethyl)phenyl]-1,2,4-oxadiazol-3-yl}-1H-indazol-1-yl)butanoic acid]	< 6.5
CC(C)Oc1ncc(-c2nc(-c3cccc4c3cnn4CCCC(=O)O)no2)cc1Cl [Example 36, 4-[4-(5-{5-chloro-6-[(1-methylethyl)oxy]-3-pyridinyl}-1,2,4-oxadiazol-3-yl)-1H-indazol-1-yl]butanoic acid]	< 6.5
O=C(O)CCCn1ncc2c(-c3noc(-c4cc(-c5ccccc5)c(C(F)(F)F)s4)n3)cccc21 [Example 37, 4-(4-{5-[4-phenyl-5-(trifluoromethyl)-2-thienyl]-1,2,4-oxadiazol-3-yl}-1H-indazol-1-yl)butanoic acid]	< 6.5
CC(C)Oc1ccc(-c2nc(-c3cccc4nn(CCCC(=O)O)cc34)no2)cc1Cl [Example 38, 4-[4-(5-{3-chloro-4-[(1-methylethyl)oxy]phenyl}-1,2,4-oxadiazol-3-yl)-2H-indazol-2-yl]butanoic acid]	< 6.5
CC[C@H](C)Oc1ccc(-c2nc(-c3ccc4c(cnn4CCC(=O)[O-])c3)no2)cc1C#N.[Na+] [Example 39, 3-{5-[5-(3-cyano-4-{[(1S)-1-methylpropyl]oxy}phenyl)-1,2,4-oxadiazol-3-yl]-1H-yl}propanoic acid sodium salt]	< 6.5
CC[C@@H](C)Oc1ccc(-c2nc(-c3ccc4c(cnn4CCC(=O)[O-])c3)no2)cc1C#N.[Na+] [Example 40, 3-{5-[5-(3-cyano-4-{[(1R)-1-methylpropyl]oxy}phenyl)-1,2,4-oxadiazol-3-yl]-1H-indazol-1-yl}propanoic acid sodium salt]	< 6.5
N#Cc1cc(-c2nc(-c3ccc4c(cnn4CCC(=O)[O-])c3)no2)ccc1OC1CCCC1.[Na+] [Example 41, 3-(5-{5-[3-cyano-4-(cyclopentyloxy)phenyl]-1,2,4-oxadiazol-3-yl}-1H-indazol-1-yl)propanoic acid sodium salt]	< 6.5
CC(C)Oc1ccc(-c2nc(-c3ccc4c(cnn4CCCC(=O)O)c3)no2)cc1Cl [Example 42, 4-[5-(5-{3-Chloro-4-[(1-methylethyl)oxy]phenyl}-1,2,4-oxadiazol-3-yl)-1H-indazol-1-yl]butanoic acid]	< 6.5
O=C(O)CCCn1ncc2cc(-c3noc(-c4cc(-c5ccccc5)c(C(F)(F)F)s4)n3)ccc21 [Example 43, 4-(5-{5-[4-phenyl-5-(trifluoromethyl)-2-thienyl]-1,2,4-oxadiazol-3-yl}-1H-indazol-1-yl)butanoic acid]	< 6.5
CC(C)Oc1ccc(-c2nc(-c3ccc4nn(CCCC(=O)O)cc4c3)no2)cc1C#N [Example 44, 4-[5-(5-{3-|Cyano-4-[(1-methylethyl)oxy]phenyl}-1,2,4-oxadiazol-3-yl)-2H-indazol-2-yl]butanoic acid]	< 6.5
CC(C)Oc1ccc(-c2nc(-c3ccc4c(cnn4CC(C)(C)C(=O)O)c3)no2)cc1Cl [Example 45, 3-[5-(5-{3-Chloro-4-[(1-methylethyl)oxy]phenyl}-1,2,4-oxadiazol-3-yl)-1H-indazol-1-yl]-2,2-dimethylpropanoic acid]	< 6.5
CC(C)Oc1ccc(-c2nc(-c3ccc4nn(CC(C)(C)C(=O)O)cc4c3)no2)cc1Cl [Example 46, 3-[5-(5-{3-Chloro-4-[(1-methylethyl)oxy]phenyl}-1,2,4-oxadiazol-3-yl)-2H-indazol-2-yl]-2,2-dimethylpropanoic acid]	< 6.5
CC(C)Oc1ncc(-c2nc(-c3ccc4c(cnn4CC(C)(C)C(=O)O)c3)no2)cc1Cl [Example 52, 3-[5-(5-{5-Chloro-6-[(1-methylethyl)oxy]-3-pyridinyl}-1,2,4-oxadiazol-3-yl)-1H-indazol-1-yl]-2,2-dimethylpropanoic acid]	< 6.5

— US8324254B2, “Oxadiazole substituted indazole derivatives for use as sphingosine 1-phosphate (S1P) agonists” (Glaxo Group Limited, priority 2007, dated 2012)
